Values quoted from earlier work, collected in US12466839B2, “Allosteric AKT inhibitors for use in the treatment of Hereditary Hemorrhagic Telangiectasia” (VADERIS THERAPEUTICS AG, priority 2020, dated 2025).
For at least one compound, name, drawing or mass did not settle the structure.

Assays:
[1] = test system: AVM formation in Eng-iKO model; conditions: Eng-iKO model (Jin et al. 2017; Ruiz et al. 2019); cited from earlier work
[2] = test system: AVM formation in ALK1 or SMAD4 iKO; conditions: retinal mouse model of ALK1 or SMAD4 iKO (Ola et al.); cited from earlier work

COC[C@H]1OC(=O)c2coc3c2[C@@]1(C)C1=C(C3=O)[C@@H]2CCC(=O)[C@@]2(C)C[C@H]1OC(C)=O [Wortmannin]
inhibition of AVM formation [1]: not in the Endoglin-inducible knockout (Eng-iKO) model | inhibition of AVM formation [2]: able to inhibit AVM formation

CO[C@H]1C[C@@H]2CC[C@@H](C)[C@@](O)(O2)C(=O)C(=O)N2CCCC[C@H]2C(=O)O[C@H]([C@H](C)C[C@@H]2CC[C@@H](O)[C@H](OC)C2)CC(=O)[C@H](C)/C=C(\C)[C@@H](O)[C@@H](OC)C(=O)[C@H](C)C[C@H](C)/C=C/C=C/C=C/1C [sirolimus]
inhibition of AVM formation [1]: not able to block AVM formation
